Assay results: US8999889B2, “Substituted ketonic isoxazoline compounds and derivatives for combating animal pests” (BASF SE, priority 2010, dated 2015)
Some entries share one result that the patent states for a list of compounds.

How the values were obtained:
Assay type in all cases: in vivo
[1] = tested on: Heliothis virescens; test: Tobacco budworm (Heliothis virescens) I, sprayed cotton plants; conditions: Heliothis virescens larvae; 2500 ppm; 4 days after treatment
Protocol: B.6 Tobacco Budworm (Heliothis virescens) I
(§1) The active compounds were formulated in cyclohexanone as a 10,000 ppm solution supplied in tubes. The tubes were inserted into an automated electrostatic sprayer equipped with an atomizing nozzle and they served as stock solutions for which lower dilutions were made in 50% acetone:50% water (v/v). A nonionic surfactant (Kinetic®) was included in the solution at a volume of 0.01% (v/v).
Cotton plants were grown 2 plants to a pot and selected for treatment at the cotyledon stage. Test solutions were sprayed onto the foliage by an automated electrostatic plant sprayer equipped with an atomizing spray nozzle. The plants were dried in the sprayer fume hood and then removed from the sprayer. Each pot was placed into perforated plastic bags with a zip closure. About 10 to 11 budworm larvae were placed into the bag and the bags zipped closed. Test plants were maintained in a growth room at about 25° C. and about 20-40% relative humidity for 4 days, avoiding direct exposure to fluorescent light (24 hour photoperiod) to prevent trapping of heat inside the bags. Mortality and reduced feeding were assessed 4 days after treatment, compared to untreated control plants.

[2] = tested on: Plutella xylostella; test: Diamond back moth (Plutella xylostella), dipped Chinese cabbage leaves; conditions: 300 ppm, mortality recorded 24, 72, and 120 hours after treatment
Protocol: If not otherwise specified the test solutions were prepared as follow:
The active compound was dissolved at the desired concentration in a mixture of 1:1 (vol:vol) distilled water:acteon. The test solution was prepared at the day of use and in general at concentrations of ppm (wt/vol).
B.1 Diamond Back Moth (Plutella xylostella)
Leaves of Chinese cabbage were dipped in test solution and air-dried. Treated leaves were placed in petri dished lined with moist filter paper. Mortality was recorded 24, 72, and 120 hours after treatment.

[3] = tested on: Spodoptera eridania; test: Southern armyworm (Spodoptera eridania), sprayed lima bean plants; conditions: Spodoptera eridania larvae; 300 ppm; 4 days after treatment
Protocol: B.4 Southern Armyworm (Spodoptera eridania)
as §1
Lima bean plants (variety Sieva) were grown 2 plants to a pot and selected for treatment at the 1st true leaf stage. Test solutions were sprayed onto the foliage by an automated electrostatic plant sprayer equipped with an atomizing spray nozzle. The plants were dried in the sprayer fume hood and then removed from the sprayer. Each pot was placed into perforated plastic bags with a zip closure. About 10 to 11 armyworm larvae were placed into the bag and the bags zipped closed. Test plants were maintained in a growth room at about 25° C. and about 20-40% relative humidity for 4 days, avoiding direct exposure to fluorescent light (24 hour photoperiod) to prevent trapping of heat inside the bags. Mortality and reduced feeding were assessed 4 days after treatment, compared to untreated control plants.

[4] = tested on: Megoura viciae; test: Vetch aphid (Megoura viciae), broad bean leaf disks in microtiter plates; conditions: Megoura viciae adults; 2500 ppm; 5 days
Protocol: B.5 Vetch aphid (Megoura viciae)
For evaluating control of vetch aphid (Megoura viciae) through contact or systemic means the test unit consisted of 24-well-microtiter plates containing broad bean leaf disks.
The compounds were formulated using a solution containing 75% v/v water and 25% v/v DMSO. Different concentrations of formulated compounds were sprayed onto the leaf disks at 2.5 μl, using a custom built micro atomizer, at two replications. After application, the leaf disks were air-dried and 5-8 adult aphids placed on the leaf disks inside the microtiter plate wells. The aphids were then allowed to suck on the treated leaf disks and incubated at about 23±1° C. and about 50±5% relative humidity for 5 days. Aphid mortality and fecundity was then visually assessed.

[5] = tested on: Bemisia argentifolii; test: Silverleaf whitefly (Bemisia argentifolii), sprayed cotton plants; conditions: Bemisia argentifolii adults; 300 ppm; 3 days after treatment
From the text: B.3 Silverleaf Whitefly (Bemisia argentifolii)
as §1
Cotton plants at the cotyledon stage (one plant per pot) were sprayed by an automated electrostatic plant sprayer equipped with an atomizing spray nozzle. The plants were dried in the sprayer fume hood and then removed from the sprayer. Each pot was placed into a plastic cup and about 10 to 12 whitefly adults (approximately 3-5 days old) were introduced. The insects were collected using an aspirator and a nontoxic Tygon® tubing connected to a barrier pipette tip. The tip, containing the collected insects, was then gently inserted into the soil containing the treated plant, allowing insects to crawl out of the tip to reach the foliage for feeding. Cups were covered with a reusable screened lid. Test plants were maintained in a growth room at about 25° C. and about 20-40% relative humidity for 3 days, avoiding direct exposure to fluorescent light (24 hour photoperiod) to prevent trapping of heat inside the cup. Mortality was assessed 3 days after treatment, compared to untreated control plants.

[6] = tested on: Myzus persicae; test: Green peach aphid (Myzus persicae), artificial diet under membrane, systemic; conditions: Myzus persicae adults; 2500 ppm; 3 days
From the text: B.8 Green Peach Aphid (Myzus Persicae)
For evaluating control of green peach aphid (Myzus persicae) through systemic means the test unit consisted of 96-well-microtiter plates containing liquid artificial diet under an artificial membrane.
The compounds were formulated using a solution containing 75% v/v water and 25% v/v DMSO. Different concentrations of formulated compounds were pipetted into the aphid diet, using a custom built pipetter, at two replications.
After application, 5-8 adult aphids were placed on the artificial membrane inside the microtiter plate wells. The aphids were then allowed to suck on the treated aphid diet and incubated at about 23±1° C. and about 50±5% relative humidity for 3 days. Aphid mortality and fecundity was then visually assessed.

[7] = tested on: Anthonomus grandis; test: Boll weevil (Anthonomus grandis), microtiter plate with insect diet and eggs; conditions: 2500 ppm, egg and larval mortality after 5 days
Protocol: B.7 Boll Weevil (Anthonomus grandis)
For evaluating control of boll weevil (Anthonomus grandis) the test unit consisted of 24-well-microtiter plates containing an insect diet and 20-30 A. grandis eggs.
The compounds were formulated using a solution containing 75% v/v water and 25% v/v DMSO. Different concentrations of formulated compounds were sprayed onto the insect diet at 20 μl, using a custom built micro atomizer, at two replications.
After application, microtiter plates were incubated at about 23±1° C. and about 50±5% relative humidity for 5 days. Egg and larval mortality was then visually assessed.

[8] = tested on: Ceratitis capitata; test: Mediterranean fruitfly (Ceratitis capitata), microtiter plate with insect diet and eggs; conditions: 2500 ppm, egg and larval mortality after 5 days
Protocol: B.2 Mediterranean Fruitfly (Ceratitis capitata)
For evaluating control of Mediterranean fruitfly (Ceratitis capitata) the test unit consisted of microtiter plates containing an insect diet and 50-80 C. capitata eggs.
The compounds were formulated using a solution containing 75% v/v water and 25% v/v DMSO. Different concentrations of formulated compounds were sprayed onto the insect diet at 5 μl, using a custom built micro atomizer, at two replications. After application, microtiter plates were incubated at about 28±1° C. and about 80±5% relative humidity for 5 days. Egg and larval mortality was then visually assessed.

Measured: mortality in comparison with untreated controls

Cc1cc(C2=NOC(c3cc(Cl)cc(Cl)c3)(C(F)(F)F)C2)ccc1C(=O)CCCC(=O)NCC(F)(F)F (centres unmarked) [Compound 1-54]
at least 75%: all assays above

CCN(CC)C(=O)CCCC(=O)c1ccc(C2=NOC(c3cc(Cl)cc(Cl)c3)(C(F)(F)F)C2)cc1C (centres unmarked) [Compound 1-55]
at least 75%: all assays above

C=CCNC(=O)CCCC(=O)c1ccc(C2=NOC(c3cc(Cl)cc(Cl)c3)(C(F)(F)F)C2)cc1C (centres unmarked) [Compound 1-52]
at least 75%: all assays above

CNC(=O)CCCC(=O)c1ccc(C2=NOC(c3cc(Cl)cc(Cl)c3)(C(F)(F)F)C2)cc1C (centres unmarked) [Compound 1-50]
at least 75%: all assays above

CCCNC(=O)CCC(=O)c1ccc(C2=NOC(c3cc(Cl)cc(Cl)c3)(C(F)(F)F)C2)cc1C (centres unmarked) [Compound 1-31]
at least 75%: all assays above

C#CCNC(=O)CCCC(=O)c1ccc(C2=NOC(c3cc(Cl)cc(Cl)c3)(C(F)(F)F)C2)cc1C (centres unmarked) [Compound 1-56]
at least 75%: all assays above

Cc1cc(C2=NOC(c3cc(Cl)cc(Cl)c3)(C(F)(F)F)C2)ccc1C(=O)CCCC(=O)NCC1CC1 (centres unmarked) [Compound 1-60]
not listed: [5]
at least 75%: all other assays above

CNC(=O)CCC(=O)c1ccc(C2=NOC(c3cc(Cl)cc(Cl)c3)(C(F)(F)F)C2)cc1C (centres unmarked) [Compound 1-29]
at least 75%: all assays above

CCNC(=O)CCCC(=O)c1ccc(C2=NOC(c3cc(Cl)cc(Cl)c3)(C(F)(F)F)C2)cc1C (centres unmarked) [Compound 1-38]
at least 75%: all assays above

CCCNC(=O)CCCC(=O)c1ccc(C2=NOC(c3cc(Cl)cc(Cl)c3)(C(F)(F)F)C2)cc1C (centres unmarked) [Compound 1-39]
at least 75%: all assays above

Cc1cc(C2=NOC(c3cc(Cl)cc(Cl)c3)(C(F)(F)F)C2)ccc1C(=O)CCCC(=O)NC(C)C1CC1 (centres unmarked) [Compound 1-24]
not listed: [2]
at least 75%: all other assays above
